{"source": "patent US20120301951A1", "about": "“PREVENTION OF CONTAMINATION OF NUTRIENT FEED RESERVOIRS & FEED LINES IN BIOREACTOR SYSTEMS” (E. I. DU PONT DE NEMOURS AND COMPANY, priority 2010, published 2012)", "tested_on": "Arcobacter sp. strain 97AE3-12", "assay": "Contamination prevention of the nutrient feed reservoir during continuous growth in a bioreactor (Example 2); ion chromatography of feed reservoir and effluent", "assay_type": "cell-based", "data": [{"compound": "O=NO", "note": "[Nitrite, nitrite]", "values": [{"measurement": "Concentration in bioreactor effluent (7) after 20 days of feeding", "setting": "20 days", "value": 0, "unit": "ppm"}, {"measurement": "Concentration in bioreactor effluent (7) after 26 days of feeding", "setting": "26 days", "value": 3, "unit": "ppm"}]}]}
